These are yes or no findings as the source states them, for the method shown. Binding seen in cells or lysates may run through a third protein. Some entries that bind do so weakly or less than the wild type. Where a sequence is shown, tags or fusion partners need not be part of it. Values belong to the molecule of their own block, whether it stands above or below them.
Columns and labels:
Flag-tagged FBXL7 = target: T1, Flag-tagged FBXL7 (UniProt Q9UJT9); assay: co-IP; HEK293T cells co-transfected with Flag-tagged FBXL7 and His-tagged Survivin, 24 h; lysed in co-IP buffer; immunoprecipitation with rabbit Flag, His and control IgG antibodies; western blot
T1 sequence: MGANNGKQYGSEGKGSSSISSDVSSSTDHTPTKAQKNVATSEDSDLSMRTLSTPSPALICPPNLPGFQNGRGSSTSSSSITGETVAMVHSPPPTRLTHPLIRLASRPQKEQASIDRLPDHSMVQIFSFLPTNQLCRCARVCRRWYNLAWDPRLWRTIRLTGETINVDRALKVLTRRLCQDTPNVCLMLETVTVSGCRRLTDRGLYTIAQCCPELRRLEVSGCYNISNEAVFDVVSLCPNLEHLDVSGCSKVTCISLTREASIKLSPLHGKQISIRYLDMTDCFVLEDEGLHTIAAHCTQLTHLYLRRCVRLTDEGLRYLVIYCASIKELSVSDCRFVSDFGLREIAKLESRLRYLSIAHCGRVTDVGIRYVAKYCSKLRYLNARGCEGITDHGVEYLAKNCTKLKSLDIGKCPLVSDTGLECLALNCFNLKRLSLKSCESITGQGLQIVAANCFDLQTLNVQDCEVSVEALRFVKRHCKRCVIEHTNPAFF

Chains of the proteins cited; added tags and fusions are not shown.
UniProt O15392: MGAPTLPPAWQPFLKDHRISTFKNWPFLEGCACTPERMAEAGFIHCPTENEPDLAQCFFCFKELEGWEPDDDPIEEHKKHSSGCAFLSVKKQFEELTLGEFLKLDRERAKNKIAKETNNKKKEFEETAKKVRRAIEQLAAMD

[1] = target: His-tagged Survivin (human) (UniProt O15392); assay: as above
[2] = target: T2, Aurora kinase A (AURKA) (human) (UniProt O14965); assay: co-IP; HEK293T cells transfected with His-tagged FOXP1 and AURKA plasmids; whole-cell lysates immunoprecipitated with control IgG, His and AURKA antibodies; immunoblot
T2 sequence: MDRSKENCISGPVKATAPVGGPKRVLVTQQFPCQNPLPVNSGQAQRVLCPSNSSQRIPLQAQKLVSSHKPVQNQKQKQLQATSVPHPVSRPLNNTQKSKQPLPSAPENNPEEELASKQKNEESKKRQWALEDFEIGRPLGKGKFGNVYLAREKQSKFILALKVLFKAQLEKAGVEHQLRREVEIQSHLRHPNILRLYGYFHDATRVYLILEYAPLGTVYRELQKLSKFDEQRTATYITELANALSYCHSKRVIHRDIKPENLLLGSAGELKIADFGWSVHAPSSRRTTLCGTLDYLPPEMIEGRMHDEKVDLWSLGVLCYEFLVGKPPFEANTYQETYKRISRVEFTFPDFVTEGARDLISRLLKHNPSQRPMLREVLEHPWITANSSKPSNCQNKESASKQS

His-tagged FOXP1 = target: T3, His-tagged FOXP1 (UniProt Q9H334); assay: as above
T3 sequence: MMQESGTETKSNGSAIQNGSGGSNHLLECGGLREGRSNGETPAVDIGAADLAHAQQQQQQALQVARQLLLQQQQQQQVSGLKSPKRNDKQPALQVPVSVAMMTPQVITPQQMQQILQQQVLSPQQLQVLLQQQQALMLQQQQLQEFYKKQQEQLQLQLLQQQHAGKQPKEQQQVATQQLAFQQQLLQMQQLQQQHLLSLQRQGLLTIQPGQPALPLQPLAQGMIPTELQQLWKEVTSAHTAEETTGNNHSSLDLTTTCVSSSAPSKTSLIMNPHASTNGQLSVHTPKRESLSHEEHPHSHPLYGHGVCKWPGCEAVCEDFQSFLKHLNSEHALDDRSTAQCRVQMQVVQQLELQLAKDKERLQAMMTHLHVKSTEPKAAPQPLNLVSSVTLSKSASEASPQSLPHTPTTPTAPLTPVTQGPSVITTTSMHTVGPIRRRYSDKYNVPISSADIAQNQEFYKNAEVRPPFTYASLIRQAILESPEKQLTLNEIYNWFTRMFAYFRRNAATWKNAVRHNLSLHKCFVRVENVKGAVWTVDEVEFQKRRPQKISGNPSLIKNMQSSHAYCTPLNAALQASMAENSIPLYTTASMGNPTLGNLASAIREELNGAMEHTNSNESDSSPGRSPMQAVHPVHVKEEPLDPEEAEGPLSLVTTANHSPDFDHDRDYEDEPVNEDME

Molecule: His-tagged Survivin (from UniProt O15392 1-142)
- binding (Flag-tagged FBXL7): binds

B1: Flag-tagged FBXL7 (protein, UniProt Q9UJT9 1-491)
chain: MGANNGKQYGSEGKGSSSISSDVSSSTDHTPTKAQKNVATSEDSDLSMRTLSTPSPALICPPNLPGFQNGRGSSTSSSSITGETVAMVHSPPPTRLTHPLIRLASRPQKEQASIDRLPDHSMVQIFSFLPTNQLCRCARVCRRWYNLAWDPRLWRTIRLTGETINVDRALKVLTRRLCQDTPNVCLMLETVTVSGCRRLTDRGLYTIAQCCPELRRLEVSGCYNISNEAVFDVVSLCPNLEHLDVSGCSKVTCISLTREASIKLSPLHGKQISIRYLDMTDCFVLEDEGLHTIAAHCTQLTHLYLRRCVRLTDEGLRYLVIYCASIKELSVSDCRFVSDFGLREIAKLESRLRYLSIAHCGRVTDVGIRYVAKYCSKLRYLNARGCEGITDHGVEYLAKNCTKLKSLDIGKCPLVSDTGLECLALNCFNLKRLSLKSCESITGQGLQIVAANCFDLQTLNVQDCEVSVEALRFVKRHCKRCVIEHTNPAFF
- binding [1]: binds

The remaining lines, values ahead:

- binding [2]: binds
B2: His-tagged FOXP1 (protein, UniProt Q9H334 1-677)
chain: MMQESGTETKSNGSAIQNGSGGSNHLLECGGLREGRSNGETPAVDIGAADLAHAQQQQQQALQVARQLLLQQQQQQQVSGLKSPKRNDKQPALQVPVSVAMMTPQVITPQQMQQILQQQVLSPQQLQVLLQQQQALMLQQQQLQEFYKKQQEQLQLQLLQQQHAGKQPKEQQQVATQQLAFQQQLLQMQQLQQQHLLSLQRQGLLTIQPGQPALPLQPLAQGMIPTELQQLWKEVTSAHTAEETTGNNHSSLDLTTTCVSSSAPSKTSLIMNPHASTNGQLSVHTPKRESLSHEEHPHSHPLYGHGVCKWPGCEAVCEDFQSFLKHLNSEHALDDRSTAQCRVQMQVVQQLELQLAKDKERLQAMMTHLHVKSTEPKAAPQPLNLVSSVTLSKSASEASPQSLPHTPTTPTAPLTPVTQGPSVITTTSMHTVGPIRRRYSDKYNVPISSADIAQNQEFYKNAEVRPPFTYASLIRQAILESPEKQLTLNEIYNWFTRMFAYFRRNAATWKNAVRHNLSLHKCFVRVENVKGAVWTVDEVEFQKRRPQKISGNPSLIKNMQSSHAYCTPLNAALQASMAENSIPLYTTASMGNPTLGNLASAIREELNGAMEHTNSNESDSSPGRSPMQAVHPVHVKEEPLDPEEAEGPLSLVTTANHSPDFDHDRDYEDEPVNEDME

- binding (His-tagged FOXP1): binds
B3: Aurora kinase A (AURKA) (protein, UniProt O14965 1-403)
chain: MDRSKENCISGPVKATAPVGGPKRVLVTQQFPCQNPLPVNSGQAQRVLCPSNSSQRIPLQAQKLVSSHKPVQNQKQKQLQATSVPHPVSRPLNNTQKSKQPLPSAPENNPEEELASKQKNEESKKRQWALEDFEIGRPLGKGKFGNVYLAREKQSKFILALKVLFKAQLEKAGVEHQLRREVEIQSHLRHPNILRLYGYFHDATRVYLILEYAPLGTVYRELQKLSKFDEQRTATYITELANALSYCHSKRVIHRDIKPENLLLGSAGELKIADFGWSVHAPSSRRTTLCGTLDYLPPEMIEGRMHDEKVDLWSLGVLCYEFLVGKPPFEANTYQETYKRISRVEFTFPDFVTEGARDLISRLLKHNPSQRPMLREVLEHPWITANSSKPSNCQNKESASKQS
